No constants are given. Whether binding was seen depends on the method and setting. Some binding calls cover weakened binding; strength is not graded here.
Columns and labels:
[1] = molecular target: T1, CD5 SDSDY peptide (human); experiment: SPR; biotinylated peptides immobilized on streptavidin-coated CM5 chips, BIAcore 3000; radixin FERM injected at 37°; streptavidin flow cell subtracted; equilibrium binding fitted with a 1:1 Langmuir model; both purified
T1 sequence (peptide, biotinylated at the N terminus): PDNSSDSDYDLHGAQRL

Amino acid sequences for entries named in this document (tags omitted). Residues count along the entry.
UniProt P26043, residues 1-310: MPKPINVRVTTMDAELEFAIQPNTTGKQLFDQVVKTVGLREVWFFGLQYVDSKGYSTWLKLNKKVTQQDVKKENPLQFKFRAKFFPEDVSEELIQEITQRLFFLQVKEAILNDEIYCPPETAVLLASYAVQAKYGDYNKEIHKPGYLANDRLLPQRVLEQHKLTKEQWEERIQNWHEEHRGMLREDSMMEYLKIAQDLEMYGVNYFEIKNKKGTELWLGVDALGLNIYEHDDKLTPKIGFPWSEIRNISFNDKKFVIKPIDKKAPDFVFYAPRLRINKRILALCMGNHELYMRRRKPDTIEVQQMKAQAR

[2] = molecular target: T2, CD6 SDSDY peptide (human); experiment: as above
T2 sequence (peptide, biotinylated at the N terminus): GSDSDYEHYDFSAQ

Substance: radixin FERM domain (amino acid residues 1-310) (from UniProt P26043 1-310) (domain or fragment)
- binding [1]: binds weakly
- binding [2]: binds weakly
